The structures appear in SMILES notation. Several values for one entry are separate records, joined by “and”; a condition that tells them apart may be missing. Equal entries are not always repeated. This is one part of the list. Repeats in this data set agree poorly, so a single value says little.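 HEK293T cells were given each compound shortly before transfection with a reporter in which red mCherry is followed by the SARS-CoV-2 frameshift element and then GFP in the −1 frame, so GFP appears only after frameshifting.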

The test system of this experiment is HEK293T. Description: percent viability (nuclei count) relative to control; higher = more viable cells. To be noted: 10 µM; 24 h.
For `NC1=NCC2c3ccccc3Cc3ccccc3N12` (configuration not stated) [epinastine], the percent viability amounted to 135%.
To `O=C(O)COc1ccc(C(=O)c2cccs2)c(Cl)c1Cl` [tienilic acid] belongs 123%; to `S=C(NCCc1ccccn1)Nc1ccc(Br)cn1` [trovirdine], 183%.
`CCCCc1nc(Cl)c(CO)n1Cc1ccc(-c2ccccc2-c2nnn[nH]2)cc1` [Cozaar]: the percent viability was determined as 67.6%.
Consider `CCOC(=O)C1=C(C)NC(C)=C(C(=O)OC)C1c1cccc(Cl)c1Cl` (configuration not stated) [felodipine], for which the percent viability is 91.6% and 257%.
Take `CCn1cc(C(=O)O)c(=O)c2cc(F)c(N3CCNCC3)cc21` [norfloxacin]: the percent viability was 342% and 126%.
For the compound `C[C@@H](O)[C@@H]1NC(=O)[C@H](CCCCN)NC(=O)[C@@H](Cc2c[nH]c3ccccc23)NC(=O)[C@H](Cc2ccccc2)NC(=O)[C@@H](NC(=O)[C@H](N)Cc2ccccc2)CSSC[C@@H](C(=O)N[C@H](CO)[C@@H](C)O)NC1=O` [Octreotide], the percent viability is 193% and 344%.
In the case of `CC(C)(C)NCC(O)COc1cccc2c1CCC(=O)N2` (configuration not stated) [carteolol], the percent viability is 243%.
For the compound `COc1ccc(C(=O)c2ccc(C)cc2)c(O)c1` [mexenone], the percent viability stood at 162%.
`N/C(=N\C(=O)c1nc(Cl)c(N)nc1N)NCc1ccccc1` [Benzamil]: the percent viability turned out to be 196%.
Take `CC(=O)NCCCS(=O)(=O)O`: the percent viability turned out to be 214%.
In the case of `C1CCN2C[C@H]3C[C@H](CN4CCCC[C@@H]34)[C@H]2C1`, the percent viability came to 227%.
For `CC(C)Nc1ncccn1` [isaxonine], the percent viability is 357%.
Take `CCCC(=O)OCOC(=O)C1=C(C)NC(C)=C(C(=O)OC)C1c1cccc(Cl)c1Cl` (configuration not stated) [clevidipine]: the percent viability turned out to be 205%.
The result for `O=C(O)[C@@H]1C[C@H](CP(=O)(O)O)CCN1` (racemic) [selfotel] reads 87%; that for `N[C@@H]1CCCC[C@H]1N.O=C([O-])C(=O)[O-].[Pt+2]` [Eloxatin], 189%.
Take `CC(C)(O)CC(C)(O)c1ccc(Cl)cc1` (configuration not stated) [fenpentadiol]: the percent viability was 305%.
Turning to `CC(=O)c1ccc2c(c1)N(CCCN1CCN(CCO)CC1)c1ccccc1S2`, the percent viability turned out to be 134%.
As to `Cc1ncc([N+](=O)[O-])n1C`, the percent viability was found to be 339%.
Consider `CN1CCN(CCCN2c3ccccc3Sc3ccc(C(F)(F)F)cc32)CC1` [trifluoperazine], for which the percent viability was 220% and 436%.
To `Cc1ccc(Cl)c(OCC(O)CNC(C)(C)C)c1` (configuration not stated) [bupranolol] belongs 185%.
`C[n+]1c2cc(N)ccc2cc2ccc(N)cc21`: the percent viability was 49%.
With `NC(=O)C1=C(O)[C@@]2(O)C(=O)C3=C(O)c4c(O)cccc4C[C@H]3C[C@H]2CC1=O` [incyclinide], the percent viability is 20.7%.
In the case of `CCOc1ccccc1OCC1CNCCO1` (configuration not stated) [viloxazine], the percent viability came out at 334%.
The result for `CC(C)C[C@H](N)C(=O)O` [leucine] reads 107%; that for `O=c1[nH]c2ccccc2n1C1CCN(CCOc2ccccc2)CC1` [oxiperomide], 148%.
Regarding `CCc1cccc(N(C)C(=N)Nc2cccc3ccccc23)c1` [aptiganel], the percent viability turned out to be 127%.

The values above are taken from the supplement of paper PMC8256030.
